Results reported in article PMC7048770.
No constants are given. Whether binding was seen depends on the method and setting. Binding seen in cells or lysates may run through a third protein. Some binding calls cover weakened binding; strength is not graded here. For part of these data: Where a sequence is shown, tags or fusion partners need not be part of it. Blank lines part the entries; values can stand above or below the molecule they belong to.

Protein sequences, listed by entry. Tags and fused reporters are not part of them. Lines headed by an entry give the natural chain unless they say otherwise; changes in a name come on top.
UniProt Q5J8M3: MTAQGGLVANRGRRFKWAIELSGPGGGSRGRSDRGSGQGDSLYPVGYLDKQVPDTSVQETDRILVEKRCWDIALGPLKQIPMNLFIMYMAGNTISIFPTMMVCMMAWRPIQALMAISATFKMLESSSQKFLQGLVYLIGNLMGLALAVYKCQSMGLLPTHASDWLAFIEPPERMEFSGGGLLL
UniProt P51149: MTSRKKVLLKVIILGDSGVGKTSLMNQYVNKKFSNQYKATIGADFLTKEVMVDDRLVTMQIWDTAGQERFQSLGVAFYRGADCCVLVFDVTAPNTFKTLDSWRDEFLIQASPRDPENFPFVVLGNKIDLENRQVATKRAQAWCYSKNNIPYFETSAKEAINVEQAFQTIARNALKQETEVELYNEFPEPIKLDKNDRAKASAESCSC

How the values were obtained:
[1] = target: T1, EMC7*-FLAG (human (cDNA isolated from HEK 293 T cells)) (UniProt Q9NPA0); experiment: co-IP; cells transfected with FLAG-tagged constructs (HEK 293 T treated with EMC4 and/or EMC7 siRNA, with EGFP-Rab7 constructs in Figs. 4e and 7b), extract incubated with FLAG antibody-conjugated agarose beads (FLAG M2) for 2 h at 4 °C, immunoblot
T1 sequence: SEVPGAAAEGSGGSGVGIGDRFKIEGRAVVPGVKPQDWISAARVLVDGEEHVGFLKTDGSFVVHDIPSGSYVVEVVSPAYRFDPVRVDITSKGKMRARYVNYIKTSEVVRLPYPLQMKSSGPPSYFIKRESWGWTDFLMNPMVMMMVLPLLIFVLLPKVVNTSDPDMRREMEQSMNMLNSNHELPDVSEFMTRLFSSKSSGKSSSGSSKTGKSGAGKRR

[2] = target: EMC4 (endogenous) (human (endogenous in HEK 293 T)) (UniProt Q5J8M3); experiment: co-IP; extract of untransfected cells (HEK 293 T in Fig. 4b; HNp buffer with 1% DBC or 0.5% NP40) incubated overnight with EMC4 antibody or control IgG, protein A/G agarose beads, immunoblot; both partners endogenous

binding [1]: no binding
Molecule: EGFP-N125I Rab7 (from UniProt P51149 1-207)

binding [1]: binds
Molecule: EGFP-tagged wild-type Rab7 (from UniProt P51149 1-207)

binding [2]: no binding
B1: protrudin (endogenous) (protein, UniProt Q5T4F4 1-411)
chain: MQTSEREGSGPELSPSVMPEAPLESPPFPTKSPAFDLFNLVLSYKRLEIYLEPLKDAGDGVRYLLRWQMPLCSLLTCLGLNVLFLTLNEGAWYSVGALMISVPALLGYLQEVCRARLPDSELMRRKYHSVRQEDLQRGRLSRPEAVAEVKSFLIQLEAFLSRLCCTCEAAYRVLHWENPVVSSQFYGALLGTVCMLYLLPLCWVLTLLNSTLFLGNVEFFRVVSEYRASLQQRMNPKQEEHAFESPPPPDVGGKDGLMDSTPALTPTEDLTPGSVEEAEEAEPDEEFKDAIEETHLVVLEDDEGAPCPAEDELALQDNGFLSKNEVLRSKVSRLTERLRKRYPTNNFGNCTGCSATFSVLKKRRSCSNCGNSFCSRCCSFKVPKSSMGATAPEAQRETVFVCASCNQTLSK
